PubChem BioAssay AID1259405, NCATS – 2018
Assay: 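Knock-downs that lift recombinant protein yield in hamster ovary cells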 (primary screen). System: Chinese hamster CHO-K1 ovary cells with stable secreted eGFP expression. Reagent: single siRNA against mouse genes, 0.8 pmol siRNA per well (2 µl of 400 nM stock). Time to read-out: 3 days. Read-out: 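Percent of the per-plate non-targeting control median for intracellular GFP per well by laser scanning cytometry and for cell viability by ATP luminescence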. Reading the numbers: GFP, % of control: higher = more GFP per well, higher productivity; viability (ATP), % of control: higher = more viable cells (more ATP). Rule for the call: 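Called active when intracellular GFP, relative to negative control, is at or above 120%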.
Here is one part, drawn at random, of about 50,000 reagents. About 4,000 of them (8%) count as active. 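Mouse siRNA library applied to hamster cells; one well for each siRNA.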 The numbers tell different reagents against one gene apart.

Dcaf12l1 #1: GFP, % of control = 67.8; viability (ATP), % of control = 54.8; call = inactive
Dcaf12l1 #2: GFP, % of control = 84.7; viability (ATP), % of control = 83.6; call = inactive
Dcaf12l1 #3: GFP, % of control = 92.6; viability (ATP), % of control = 103; call = inactive
Fras1 #1: GFP, % of control = 70.8; viability (ATP), % of control = 72.5; call = inactive
Fras1 #2: GFP, % of control = 64.1; viability (ATP), % of control = 87.7; call = inactive
Fras1 #3: GFP, % of control = 57.5; viability (ATP), % of control = 65.3; call = inactive
Dsc1 #1: GFP, % of control = 78.4; viability (ATP), % of control = 63.8; call = inactive
Dsc1 #2: GFP, % of control = 64.2; viability (ATP), % of control = 84.6; call = inactive
Dsc1 #3: GFP, % of control = 50.7; viability (ATP), % of control = 52.1; call = inactive
Pllp #1: GFP, % of control = 107; viability (ATP), % of control = 60.5; call = inactive
Pllp #2: GFP, % of control = 57.1; viability (ATP), % of control = 74.2; call = inactive
Pllp #3: GFP, % of control = 76.6; viability (ATP), % of control = 66.7; call = inactive
Or5l13 #1: GFP, % of control = 56.4; viability (ATP), % of control = 63; call = inactive
Or5l13 #2: GFP, % of control = 60.7; viability (ATP), % of control = 73.3; call = inactive
Or5l13 #3: GFP, % of control = 50.3; viability (ATP), % of control = 58.6; call = inactive
Nyx #1: GFP, % of control = 79.4; viability (ATP), % of control = 66.4; call = inactive
Nyx #2: GFP, % of control = 87.4; viability (ATP), % of control = 89.7; call = inactive
Nyx #3: GFP, % of control = 68.6; viability (ATP), % of control = 72.1; call = inactive
Ppip5k1 #1: GFP, % of control = 76.1; viability (ATP), % of control = 73.7; call = inactive
Ppip5k1 #2: GFP, % of control = 108; viability (ATP), % of control = 93.5; call = inactive
Ppip5k1 #3: GFP, % of control = 80.5; viability (ATP), % of control = 71.8; call = inactive
4932435O22Rik #1: GFP, % of control = 151; viability (ATP), % of control = 134; call = active
4932435O22Rik #2: GFP, % of control = 24.2; viability (ATP), % of control = 50.7; call = inactive
4932435O22Rik #3: GFP, % of control = 64.6; viability (ATP), % of control = 69.2; call = inactive
4932435O22Rik #4: GFP, % of control = 122; viability (ATP), % of control = 90.4; call = active
4932435O22Rik #5: GFP, % of control = 101; viability (ATP), % of control = 96.3; call = inactive
4932435O22Rik #6: GFP, % of control = 81.4; viability (ATP), % of control = 90.6; call = inactive

3 of these entries, set out differently:
| gene symbol | reagent no. | GFP, % of control | viability (ATP), % of control | call |
| --- | --- | --- | --- | --- |
| Or5l13 | 1 | 56.4 | 63 | inactive |
| Or5l13 | 2 | 60.7 | 73.3 | inactive |
| Or5l13 | 3 | 50.3 | 58.6 | inactive |
